Data taken from article PMC12627471.
Results are given in words; binding and its absence hold for the method and conditions named. Binding seen in cells or lysates may run through a third protein. Some binding calls cover weakened binding; strength is not graded here.

The chains behind the UniProt entries cited, without tags or fusion partners.
UniProt P14618: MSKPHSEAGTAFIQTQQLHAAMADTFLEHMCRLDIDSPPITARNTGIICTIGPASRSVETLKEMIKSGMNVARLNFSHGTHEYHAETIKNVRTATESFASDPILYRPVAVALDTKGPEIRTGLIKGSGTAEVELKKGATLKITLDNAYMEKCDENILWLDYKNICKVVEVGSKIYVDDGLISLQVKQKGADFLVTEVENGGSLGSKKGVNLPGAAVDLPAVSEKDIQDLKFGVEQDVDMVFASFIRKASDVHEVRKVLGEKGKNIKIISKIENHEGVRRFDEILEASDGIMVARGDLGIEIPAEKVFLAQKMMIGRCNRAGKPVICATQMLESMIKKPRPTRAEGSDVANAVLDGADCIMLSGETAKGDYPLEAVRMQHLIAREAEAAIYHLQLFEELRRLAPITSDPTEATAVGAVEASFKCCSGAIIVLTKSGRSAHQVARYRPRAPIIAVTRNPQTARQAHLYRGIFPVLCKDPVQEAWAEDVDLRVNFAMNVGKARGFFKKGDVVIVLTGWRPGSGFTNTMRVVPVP

Molecular target: T1, Transketolase (TKT) (human) (UniProt P29401)
T1 sequence: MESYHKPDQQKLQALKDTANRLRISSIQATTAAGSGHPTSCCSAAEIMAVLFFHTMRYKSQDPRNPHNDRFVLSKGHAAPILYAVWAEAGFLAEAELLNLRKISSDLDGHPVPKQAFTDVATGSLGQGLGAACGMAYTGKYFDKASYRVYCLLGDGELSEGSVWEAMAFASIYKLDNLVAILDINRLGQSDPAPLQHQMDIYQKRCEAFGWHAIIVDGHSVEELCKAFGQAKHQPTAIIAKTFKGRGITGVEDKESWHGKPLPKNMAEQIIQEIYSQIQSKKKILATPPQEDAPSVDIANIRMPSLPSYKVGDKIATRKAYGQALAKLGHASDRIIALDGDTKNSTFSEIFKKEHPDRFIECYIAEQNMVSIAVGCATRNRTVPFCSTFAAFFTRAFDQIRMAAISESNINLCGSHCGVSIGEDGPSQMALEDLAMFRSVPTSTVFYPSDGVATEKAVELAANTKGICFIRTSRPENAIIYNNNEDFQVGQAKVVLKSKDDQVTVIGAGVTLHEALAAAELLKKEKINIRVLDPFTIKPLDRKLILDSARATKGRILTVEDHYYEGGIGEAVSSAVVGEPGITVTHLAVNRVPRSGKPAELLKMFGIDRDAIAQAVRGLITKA
Assay: co-IP; ACHN cells lysed in Cell Lysis Buffer for Western and IP; primary antibody overnight at 4 °C; protein A/G-agarose beads 2 h at 4 °C; three washes with lysis buffer; western blot

Pyruvate kinase M2 (PKM2) (from UniProt P14618 1-531) (enzyme)
binding: binds
